# Experimental data reported in the supplement of paper PMC8728848.
# The list shows a part of the results.
# B1: DC-Sign-R (Homo sapiens), Q9H2X3 (protein)
# chain: MSDSKEPRVQQLGLLEEDPTTSGIRLFPRDFQFQQIHGHKSSTGCLGHGALVLQLLSFMLLAGVLVAILVQVSKVPSSLSQEQSEQDAIYQNLTQLKAAVGELSEKSKLQEIYQELTQLKAAVGELPEKSKLQEIYQELTRLKAAVGELPEKSKLQEIYQELTRLKAAVGELPEKSKLQEIYQELTRLKAAVGELPEKSKLQEIYQELTELKAAVGELPEKSKLQEIYQELTQLKAAVGELPDQSKQQQIYQELTDLKTAFERLCRHCPKDWTFFQGNCYFMSNSQRNWHDSVTACQEVRAQLVVIKTAEEQNFLQLQTSRSNRFSWMGLSDLNQEGTWQWVDGSPLSPSFQRYWNSGEPNNSGNEDCAEFSGSGWNDNRCDVDNYWICKKPAACFRDE
# Experiments:
# Test in all cases: glycan array binding signal (z-score within array); higher = stronger binding
# Conditions in all cases: glycan notation: IUPAC condensed, linker removed
# Fuc(a1-2)Gal = biological target: Fuc(a1-2)Gal
# Procedure, shortened: (§1)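 The binding signal is a Z-score computed within each array. Data were drawn from 3228 arrays in the Consortium for Functional Glycomics database, restricted to those with a known protein sequence. Scores were averaged over arrays of the same protein sequence at different concentrations or buffers, and over linkers, and negative values can be taken as non-binding.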
# Fuc(a1-2)Gal(b1-3)GalNAc = biological target: Fuc(a1-2)Gal(b1-3)GalNAc
# Procedure, shortened: as §1
# [1] = biological target: Fuc(a1-2)Gal(b1-3)GalNAc(a1-3)[Fuc(a1-2)]Gal(b1-4)Glc
# Procedure, shortened: as §1
# [2] = biological target: Fuc(a1-2)Gal(b1-3)GalNAc(a1-3)[Fuc(a1-2)]Gal(b1-4)GlcNAc
# Procedure, shortened: as §1
# [3] = biological target: Fuc(a1-2)Gal(b1-3)GalNAc(b1-3)Gal
# Procedure, shortened: as §1
# [4] = biological target: Fuc(a1-2)Gal(b1-3)GalNAc(b1-3)Gal(a1-4)Gal(b1-4)Glc
# Procedure, shortened: as §1
# [5] = biological target: Fuc(a1-2)Gal(b1-3)GalNAc(b1-4)[Neu5Ac(a2-3)]Gal(b1-4)Glc
# Procedure, shortened: as §1
# Fuc(a1-2)Gal(b1-3)GlcNAc = biological target: Fuc(a1-2)Gal(b1-3)GlcNAc
# Procedure, shortened: as §1
# [6] = biological target: Fuc(a1-2)Gal(b1-3)GlcNAc(b1-2)Man(a1-3)[Fuc(a1-2)Gal(b1-3)GlcNAc(b1-2)Man(a1-6)]Man(b1-4)GlcNAc(b1-4)GlcNAc
# Procedure, shortened: as §1
# [7] = biological target: Fuc(a1-2)Gal(b1-3)GlcNAc(b1-2)Man(a1-3)[Fuc(a1-2)Gal(b1-3)GlcNAc(b1-2)Man(a1-6)]Man(b1-4)GlcNAc(b1-4)[Fuc(a1-6)]GlcNAc
# Procedure, shortened: as §1
# [8] = biological target: Fuc(a1-2)Gal(b1-3)GlcNAc(b1-3)Gal(b1-4)Glc
# Procedure, shortened: as §1
# [9] = biological target: Fuc(a1-2)Gal(b1-3)GlcNAc(b1-3)GalNAc
# Procedure, shortened: as §1
# [10] = biological target: Fuc(a1-2)Gal(b1-3)GlcNAc(b1-3)[Fuc(a1-2)Gal(b1-3)GlcNAc(b1-6)]GalNAc
# Procedure, shortened: as §1
# [11] = biological target: Fuc(a1-2)Gal(b1-3)GlcNAc(b1-3)[Gal(b1-4)GlcNAc(b1-6)]Gal(b1-4)Glc
# Procedure, shortened: as §1
# [12] = biological target: Fuc(a1-2)Gal(b1-3)GlcNAc(b1-3)[Neu5Ac(a2-6)Gal(b1-4)GlcNAc(b1-6)]Gal(b1-4)Glc
# Procedure, shortened: as §1
# [13] = biological target: Fuc(a1-2)Gal(b1-3)GlcNAc6S
# Procedure, shortened: as §1
# [14] = biological target: Fuc(a1-2)Gal(b1-3)[Fuc(a1-4)]GlcNAc
# Procedure, shortened: as §1
# [15] = biological target: Fuc(a1-2)Gal(b1-3)[Fuc(a1-4)]GlcNAc(b1-2)Man(a1-3)[Fuc(a1-2)Gal(b1-3)[Fuc(a1-4)]GlcNAc(b1-2)Man(a1-3)]Man(b1-4)GlcNAc(b1-4)GlcNAc
# Procedure, shortened: as §1
# [16] = biological target: Fuc(a1-2)Gal(b1-3)[Fuc(a1-4)]GlcNAc(b1-2)Man(a1-3)[Fuc(a1-2)Gal(b1-3)[Fuc(a1-4)]GlcNAc(b1-2)Man(a1-6)]Man(b1-4)GlcNAc(b1-4)[Fuc(a1-6)]GlcNAc(b1-4)[Fuc(a1-6)]GlcNAc
# Procedure, shortened: as §1
# [17] = biological target: Fuc(a1-2)Gal(b1-3)[Fuc(a1-4)]GlcNAc(b1-3)[Fuc(a1-3)[Gal(b1-4)]GlcNAc(b1-6)]Gal(b1-4)Glc
# Procedure, shortened: as §1
# [18] = biological target: Fuc(a1-2)Gal(b1-3)[Fuc(a1-4)]GlcNAc(b1-3)[Gal(b1-4)GlcNAc(b1-6)]Gal(b1-4)Glc
# Procedure, shortened: as §1
# [19] = biological target: Fuc(a1-2)Gal(b1-4)Fuc(a1-3)]GlcNAc(b1-2)Man(a1-3)[Fuc(a1-2)Gal(b1-4)[Fuc(a1-3)]GlcNAc(b1-2)Man(a1-6)]Man(b1-4)GlcNAc(b1-4)GlcNAc
# Procedure, shortened: as §1
# Fuc(a1-2)Gal(b1-4)Glc = biological target: Fuc(a1-2)Gal(b1-4)Glc
# Procedure, shortened: as §1
# Fuc(a1-2)Gal(b1-4)Glc6S = biological target: Fuc(a1-2)Gal(b1-4)Glc6S
# Procedure, shortened: as §1
# Fuc(a1-2)Gal(b1-4)GlcNAc = biological target: Fuc(a1-2)Gal(b1-4)GlcNAc
# Procedure, shortened: as §1
# [20] = biological target: Fuc(a1-2)Gal(b1-4)GlcNAc(b1-2)Man
# Procedure, shortened: as §1
# [21] = biological target: Fuc(a1-2)Gal(b1-4)GlcNAc(b1-2)Man(a1-3)[Fuc(a1-2)Gal(b1-4)GlcNAc(b1-2)Man(a1-6)]Man(b1-4)GlcNAc(b1-4)GlcNAc
# Procedure, shortened: as §1
# [22] = biological target: Fuc(a1-2)Gal(b1-4)GlcNAc(b1-2)Man(a1-3)[Fuc(a1-2)Gal(b1-4)GlcNAc(b1-2)Man(a1-6)]Man(b1-4)GlcNAc(b1-4)[Fuc(a1-6)]GlcNAc
# Procedure, shortened: as §1
# [23] = biological target: Fuc(a1-2)Gal(b1-4)GlcNAc(b1-2)[Fuc(a1-2)Gal(b1-4)GlcNAc(b1-4)]Man(a1-3)[Fuc(a1-2)Gal(b1-4)GlcNAc(b1-2)Man(a1-6)]Man(b1-4)GlcNAc(b1-4)GlcNAc
# Procedure, shortened: as §1
# [24] = biological target: Fuc(a1-2)Gal(b1-4)GlcNAc(b1-3)Gal(b1-4)GlcNAc
# Procedure, shortened: as §1
binder,measurement,setting,value
B1,glycan array binding signal (z-score),Fuc(a1-2)Gal,-0.551
same,glycan array binding signal (z-score),Fuc(a1-2)Gal(b1-3)GalNAc,0.223
same,glycan array binding signal (z-score),[1],-0.276
same,glycan array binding signal (z-score),[2],-0.447
same,glycan array binding signal (z-score),[3],-0.369
same,glycan array binding signal (z-score),[4],0.121
same,glycan array binding signal (z-score),[5],-0.074
same,glycan array binding signal (z-score),Fuc(a1-2)Gal(b1-3)GlcNAc,-0.168
same,glycan array binding signal (z-score),[6],-0.647
same,glycan array binding signal (z-score),[7],-0.795
same,glycan array binding signal (z-score),[8],-0.64
same,glycan array binding signal (z-score),[9],-0.441
same,glycan array binding signal (z-score),[10],0.098
same,glycan array binding signal (z-score),[11],-0.694
same,glycan array binding signal (z-score),[12],0.765
same,glycan array binding signal (z-score),[13],0.232
same,glycan array binding signal (z-score),[14],0.843
same,glycan array binding signal (z-score),[15],-0.001
same,glycan array binding signal (z-score),[16],-0.596
same,glycan array binding signal (z-score),[17],-0.051
same,glycan array binding signal (z-score),[18],1.26
same,glycan array binding signal (z-score),[19],-0.341
same,glycan array binding signal (z-score),Fuc(a1-2)Gal(b1-4)Glc,-0.713
same,glycan array binding signal (z-score),Fuc(a1-2)Gal(b1-4)Glc6S,-0.652
same,glycan array binding signal (z-score),Fuc(a1-2)Gal(b1-4)GlcNAc,-0.01
same,glycan array binding signal (z-score),[20],1.11
same,glycan array binding signal (z-score),[21],-0.805
same,glycan array binding signal (z-score),[22],-0.884
same,glycan array binding signal (z-score),[23],-0.8
same,glycan array binding signal (z-score),[24],0.137

# 2 entries from above, tab-delimited:
binder	measurement	setting	value
B1	glycan array binding signal (z-score)	Fuc(a1-2)Gal(b1-3)GalNAc	0.223
same	glycan array binding signal (z-score)	[4]	0.121
